Data on one molecule can be found in PMC7069968, “Cholesteryl α-D-glucoside 6-acyltransferase enhances the adhesion of Helicobacter pylori to gastric epithelium” (Communications Biology, 2020).

This assay deals with T1, cholesteryl α-D-glucopyranoside 6′-acyltransferase (CGAT) (Helicobacter pylori, UniProt O25241).
T1 construct: gene HP_0499
In words: biochemical.

In general, IC50 refers to the concentration at which inhibition is half-maximal. A high value points to weaker potency in that assay.

`CCCCc1oc2ccccc2c1C(=O)c1cc(I)c(OCCN(CC)CC)c(I)c1` [amiodarone]: the IC50 stood at 13.8 µM.
